Data as given in PubChem BioAssay AID1224826 (NIAID, 2016).
In all, the deposit lists about 17,000 reagents; shown is a part drawn at random. About 1,110 of all reagents (6.6%) count as active. 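Active means lowered or raised reporter signal; replicate intensities are raw and not normalised per plate.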 A number with no mark means an inactive call.

Aim: 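Knock-downs that raise or lower Tnf reporter signal after endotoxin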 (primary screen)
Cells: RAW264.7 G9 macrophages from mouse bearing reporters for p65 (GFP) and the Tnf promoter (mCherry)
Reagent: siRNA pool against mouse genes, 100 nM
Time to read-out: 16 h of LPS stimulation, after 2 days of siRNA transfection
Treatment: bacterial lipopolysaccharide (Salmonella minnesota R595), 10 ng/ml
Measurement: 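Nuclear mCherry signal of the Tnf promoter reporter measured by imaging after background removal, scaled to each plate median and turned into robust z-scores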
Reading the numbers: Tnf reporter robust z-score: higher = stronger Tnf promoter reporter signal after LPS; Tnf reporter intensity: higher = stronger Tnf promoter reporter signal
Active means: 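a well counts as active at a score of -1.3 or below (Tlr4 knock-down control median) or above 3 (raised signal); controls and wells holding fewer than 50 cells are excluded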
Calls: active = Tnf reporter clearly lowered or raised; inactive = no clear change in Tnf reporter

| gene | Tnf reporter robust z-score | fewer than 50 cells in well | Tnf reporter intensity, replicate 1 | Tnf reporter intensity, replicate 2 |
| --- | --- | --- | --- | --- |
| Jagn1 | 0 | enough cells in well | 162 | 161 |
| Ffar3 | -1.07 | enough cells in well | 148 | 170 |
| Ehmt1 | 0.11 | enough cells in well | 194 | 119 |
| 1700020N01Rik | -0.34 | enough cells in well | 176 | 79.8 |
| Rufy3 | -0.86 | enough cells in well | 96.2 | 105 |
| Actbl2 | – | fewer than 50 cells per well; well left out of calls | 207 | 82.2 |
| Map3k8 | 1.47 | enough cells in well | 187 | 250 |
| Ccdc85b | 0.89 | enough cells in well | 176 | 250 |
| Copa | -1.2 | enough cells in well | 102 | 113 |
| Cyp3a25 | 1.02 | enough cells in well | 238 | 247 |
| Necap1 | 1.11 | enough cells in well | 288 | 118 |
| Ttyh2 | -1.15 | enough cells in well | 64.4 | 53.2 |
| Erap1 | 1.85 | enough cells in well | 302 | 242 |
| Txndc8 | – | fewer than 50 cells per well; well left out of calls | 355 | 147 |
| Vamp1 | -1.2 | enough cells in well | 86.4 | 40.6 |
| Ktn1 | -1.29 | enough cells in well | 121 | 95.1 |
| Synpr | 0.34 | enough cells in well | 109 | 123 |
| Ppp1r42 | 2.6 | enough cells in well | 394 | 112 |
| Gbp7 | -1.43 (active) | enough cells in well | 115 | 89.5 |
| Qtman | -1.59 (active) | enough cells in well | 104 | 42.2 |
| Itgb2 | 0.99 | enough cells in well | 299 | 216 |
| Cdh17 | -0.14 | enough cells in well | 218 | 214 |
| Ctss | 0.2 | enough cells in well | 263 | 205 |
| Oog1 | 1.23 | enough cells in well | 194 | 202 |
| Cryga | -0.09 | enough cells in well | 235 | 190 |
| Col1a2 | -0.46 | enough cells in well | 199 | 184 |
| Tcte2 | 0.09 | enough cells in well | 121 | 95.5 |
| Map3k5 | -0.25 | enough cells in well | 191 | 137 |

7 successive reagents already listed, quoted:
| gene | Tnf reporter robust z-score | fewer than 50 cells in well | Tnf reporter intensity, replicate 1 | Tnf reporter intensity, replicate 2 |
| --- | --- | --- | --- | --- |
| Ppp1r42 | 2.6 | enough cells in well | 394 | 112 |
| Gbp7 | -1.43 (active) | enough cells in well | 115 | 89.5 |
| Qtman | -1.59 (active) | enough cells in well | 104 | 42.2 |
| Itgb2 | 0.99 | enough cells in well | 299 | 216 |
| Cdh17 | -0.14 | enough cells in well | 218 | 214 |
| Ctss | 0.2 | enough cells in well | 263 | 205 |
| Oog1 | 1.23 | enough cells in well | 194 | 202 |

The list goes on:
| gene | Tnf reporter robust z-score | fewer than 50 cells in well | Tnf reporter intensity, replicate 1 | Tnf reporter intensity, replicate 2 |
| --- | --- | --- | --- | --- |
| Pycr2 | -0.7 | enough cells in well | 242 | 152 |
| Slc7a14 | 0.45 | enough cells in well | 136 | 176 |
| Ksr2 | 1.52 | enough cells in well | 358 | 186 |
| Zcchc8 | 1.1 | enough cells in well | 179 | 161 |
| Or6b6 | -0.4 | enough cells in well | 72.4 | 100 |
| Vmn1r239-ps | -0.79 | enough cells in well | 88.6 | 81.5 |
| Tmem74 | -1.18 | enough cells in well | 101 | 101 |
| Nid1 | 0.15 | enough cells in well | 269 | 179 |
| Gm5094 | 1.78 | enough cells in well | 253 | 268 |
| Akap3 | -1.35 (active) | enough cells in well | 111 | 117 |
| Emsy | -0.43 | enough cells in well | 163 | 39.8 |
| Tceal1 | -0.25 | enough cells in well | 104 | 88.3 |
| Sarnp | – | fewer than 50 cells per well; well left out of calls | 238 | 75.2 |
| Igfbp2 | 0.54 | enough cells in well | 316 | 191 |
| Txnl1 | – | fewer than 50 cells per well; well left out of calls | 162 | 428 |
| Add2 | 0.19 | enough cells in well | 176 | 184 |
| Usp12 | -0.37 | enough cells in well | 224 | 174 |
| Phxr1 | -0.3 | enough cells in well | 150 | 117 |
| Serpina3m | -0.13 | enough cells in well | 95 | 98.7 |
| Inhbe | -1.09 | enough cells in well | 153 | 61.3 |
| Ticam2 | -0.83 | enough cells in well | 81.2 | 70.2 |
| Dvl3 | 0.19 | enough cells in well | 238 | 228 |
| Pou4f1 | -0.59 | enough cells in well | 196 | 155 |
| A2m | 1.7 | enough cells in well | 237 | 260 |
| Tpp1 | 3.8 (active) | enough cells in well | 576 | 462 |
| Clec4e | -0.07 | enough cells in well | 96.4 | 260 |
| Vmn1r9 | -1.52 (active) | enough cells in well | 62 | 40.2 |
| AI854703 | -1.13 | enough cells in well | 147 | 97.9 |
| Bmp8a | -0.81 | enough cells in well | 112 | 109 |
| Mon2 | – | fewer than 50 cells per well; well left out of calls | 143 | 79.3 |
